These results are taken from the supplement of paper PMC12819154, “High-throughput peptide-centric local stability assay extends protein–ligand identification to membrane proteins, tissues and bacteria” (Nature Structural & Molecular Biology, 2025).

By UniProt entry, the sequences of proteins in these tests, tags left out. Where a name states a change or a piece, a line headed by the entry shows the natural chain unless it says otherwise.
UniProt Q9CWH5: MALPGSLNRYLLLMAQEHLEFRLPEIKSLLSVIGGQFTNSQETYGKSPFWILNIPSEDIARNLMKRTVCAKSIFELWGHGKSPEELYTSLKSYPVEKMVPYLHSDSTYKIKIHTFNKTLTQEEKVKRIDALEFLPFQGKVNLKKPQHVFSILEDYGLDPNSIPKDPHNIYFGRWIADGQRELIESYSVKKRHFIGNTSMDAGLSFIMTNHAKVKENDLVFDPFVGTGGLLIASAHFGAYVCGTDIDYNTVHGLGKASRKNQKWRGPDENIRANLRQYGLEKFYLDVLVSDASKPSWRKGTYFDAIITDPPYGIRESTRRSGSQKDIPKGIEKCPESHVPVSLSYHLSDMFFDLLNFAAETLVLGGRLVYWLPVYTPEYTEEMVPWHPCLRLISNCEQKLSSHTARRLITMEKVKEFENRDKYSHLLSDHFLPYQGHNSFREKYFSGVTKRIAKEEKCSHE
UniProt Q9CWS1: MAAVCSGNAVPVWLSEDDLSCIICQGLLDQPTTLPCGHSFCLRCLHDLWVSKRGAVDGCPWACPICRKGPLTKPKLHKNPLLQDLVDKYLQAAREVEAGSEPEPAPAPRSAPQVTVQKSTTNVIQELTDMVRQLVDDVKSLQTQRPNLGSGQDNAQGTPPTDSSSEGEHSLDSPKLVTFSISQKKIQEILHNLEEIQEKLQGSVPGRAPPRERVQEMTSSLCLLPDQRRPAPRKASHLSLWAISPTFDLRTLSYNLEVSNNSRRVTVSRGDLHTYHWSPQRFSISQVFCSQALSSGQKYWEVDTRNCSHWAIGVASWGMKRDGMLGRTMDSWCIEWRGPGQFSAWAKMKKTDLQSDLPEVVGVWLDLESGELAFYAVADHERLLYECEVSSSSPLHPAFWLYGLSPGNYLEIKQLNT
UniProt Q9D067: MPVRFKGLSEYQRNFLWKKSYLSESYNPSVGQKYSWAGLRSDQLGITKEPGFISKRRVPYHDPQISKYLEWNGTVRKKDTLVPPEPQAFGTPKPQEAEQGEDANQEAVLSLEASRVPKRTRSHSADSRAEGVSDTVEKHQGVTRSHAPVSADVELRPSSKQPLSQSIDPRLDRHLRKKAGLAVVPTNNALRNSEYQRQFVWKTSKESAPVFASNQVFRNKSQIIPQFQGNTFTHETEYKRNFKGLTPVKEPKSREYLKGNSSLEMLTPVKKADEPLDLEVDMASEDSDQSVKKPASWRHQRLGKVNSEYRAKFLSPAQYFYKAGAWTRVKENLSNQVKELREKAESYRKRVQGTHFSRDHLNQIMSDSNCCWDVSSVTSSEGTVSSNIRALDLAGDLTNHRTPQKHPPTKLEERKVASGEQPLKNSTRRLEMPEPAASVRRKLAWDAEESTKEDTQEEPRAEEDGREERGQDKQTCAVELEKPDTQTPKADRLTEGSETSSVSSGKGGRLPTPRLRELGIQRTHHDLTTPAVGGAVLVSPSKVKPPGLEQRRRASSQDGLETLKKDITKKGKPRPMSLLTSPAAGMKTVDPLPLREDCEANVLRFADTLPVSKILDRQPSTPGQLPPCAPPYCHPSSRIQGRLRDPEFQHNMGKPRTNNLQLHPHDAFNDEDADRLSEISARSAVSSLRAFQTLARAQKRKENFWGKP
UniProt Q9CZT5, whole entry: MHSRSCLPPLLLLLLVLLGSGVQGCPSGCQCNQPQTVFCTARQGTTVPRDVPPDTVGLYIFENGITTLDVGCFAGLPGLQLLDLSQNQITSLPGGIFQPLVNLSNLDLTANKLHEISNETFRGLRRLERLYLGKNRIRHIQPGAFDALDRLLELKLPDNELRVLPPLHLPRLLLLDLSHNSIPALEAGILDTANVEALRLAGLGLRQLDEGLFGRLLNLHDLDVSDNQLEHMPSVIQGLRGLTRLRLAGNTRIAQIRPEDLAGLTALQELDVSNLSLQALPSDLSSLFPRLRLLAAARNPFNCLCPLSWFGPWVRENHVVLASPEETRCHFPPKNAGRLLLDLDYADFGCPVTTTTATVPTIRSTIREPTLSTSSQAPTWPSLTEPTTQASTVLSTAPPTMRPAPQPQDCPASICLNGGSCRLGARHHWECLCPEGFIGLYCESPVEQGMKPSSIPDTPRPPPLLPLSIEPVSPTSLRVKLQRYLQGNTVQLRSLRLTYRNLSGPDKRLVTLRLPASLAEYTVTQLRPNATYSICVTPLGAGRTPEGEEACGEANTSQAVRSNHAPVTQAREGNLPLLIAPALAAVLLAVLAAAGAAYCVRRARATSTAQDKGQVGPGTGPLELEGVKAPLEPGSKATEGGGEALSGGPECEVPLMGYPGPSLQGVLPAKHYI
UniProt Q9CWY9: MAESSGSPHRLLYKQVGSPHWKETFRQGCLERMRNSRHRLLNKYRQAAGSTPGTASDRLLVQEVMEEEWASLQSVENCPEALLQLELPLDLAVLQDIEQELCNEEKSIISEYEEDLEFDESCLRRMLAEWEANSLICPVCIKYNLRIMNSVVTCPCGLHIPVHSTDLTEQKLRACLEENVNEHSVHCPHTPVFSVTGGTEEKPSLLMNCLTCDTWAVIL
UniProt Q9CRD2: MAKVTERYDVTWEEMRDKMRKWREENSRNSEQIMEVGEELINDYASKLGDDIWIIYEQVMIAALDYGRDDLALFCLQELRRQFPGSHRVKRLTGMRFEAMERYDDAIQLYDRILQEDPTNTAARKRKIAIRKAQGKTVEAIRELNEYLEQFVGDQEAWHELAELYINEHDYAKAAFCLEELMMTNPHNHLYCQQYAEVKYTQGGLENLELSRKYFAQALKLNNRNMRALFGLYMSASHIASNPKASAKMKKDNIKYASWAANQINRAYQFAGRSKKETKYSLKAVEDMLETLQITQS
UniProt Q9CRT8: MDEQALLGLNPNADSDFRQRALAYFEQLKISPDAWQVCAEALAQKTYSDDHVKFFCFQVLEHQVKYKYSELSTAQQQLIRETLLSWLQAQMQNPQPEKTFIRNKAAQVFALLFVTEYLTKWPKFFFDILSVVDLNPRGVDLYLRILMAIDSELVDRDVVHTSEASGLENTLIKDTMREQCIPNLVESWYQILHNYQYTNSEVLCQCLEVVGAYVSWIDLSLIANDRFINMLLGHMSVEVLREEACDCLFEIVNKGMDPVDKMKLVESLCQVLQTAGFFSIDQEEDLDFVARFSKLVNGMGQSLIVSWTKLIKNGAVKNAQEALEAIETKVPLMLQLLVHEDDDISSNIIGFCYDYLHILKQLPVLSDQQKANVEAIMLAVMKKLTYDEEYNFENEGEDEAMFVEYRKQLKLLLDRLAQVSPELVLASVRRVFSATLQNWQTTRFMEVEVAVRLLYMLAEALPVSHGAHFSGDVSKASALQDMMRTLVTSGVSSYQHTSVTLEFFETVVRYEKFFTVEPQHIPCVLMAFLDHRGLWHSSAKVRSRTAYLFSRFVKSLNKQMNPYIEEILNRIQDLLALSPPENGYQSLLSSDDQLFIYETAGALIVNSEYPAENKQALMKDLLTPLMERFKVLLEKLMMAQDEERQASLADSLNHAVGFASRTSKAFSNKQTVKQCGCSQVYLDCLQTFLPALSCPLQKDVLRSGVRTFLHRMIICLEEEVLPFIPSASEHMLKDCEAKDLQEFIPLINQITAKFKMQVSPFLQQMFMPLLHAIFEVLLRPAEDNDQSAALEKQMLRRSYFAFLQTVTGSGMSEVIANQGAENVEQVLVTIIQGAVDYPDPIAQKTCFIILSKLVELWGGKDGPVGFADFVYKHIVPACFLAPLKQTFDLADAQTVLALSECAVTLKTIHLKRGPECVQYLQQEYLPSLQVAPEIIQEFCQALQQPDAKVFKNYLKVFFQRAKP
UniProt Q9CZX7: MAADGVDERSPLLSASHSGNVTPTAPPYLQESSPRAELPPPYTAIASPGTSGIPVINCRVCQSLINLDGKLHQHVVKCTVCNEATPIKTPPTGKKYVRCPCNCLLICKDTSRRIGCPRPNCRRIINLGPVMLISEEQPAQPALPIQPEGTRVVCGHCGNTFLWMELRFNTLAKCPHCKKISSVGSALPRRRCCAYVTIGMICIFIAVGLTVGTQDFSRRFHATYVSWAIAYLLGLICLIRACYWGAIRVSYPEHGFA
UniProt Q9CXF7: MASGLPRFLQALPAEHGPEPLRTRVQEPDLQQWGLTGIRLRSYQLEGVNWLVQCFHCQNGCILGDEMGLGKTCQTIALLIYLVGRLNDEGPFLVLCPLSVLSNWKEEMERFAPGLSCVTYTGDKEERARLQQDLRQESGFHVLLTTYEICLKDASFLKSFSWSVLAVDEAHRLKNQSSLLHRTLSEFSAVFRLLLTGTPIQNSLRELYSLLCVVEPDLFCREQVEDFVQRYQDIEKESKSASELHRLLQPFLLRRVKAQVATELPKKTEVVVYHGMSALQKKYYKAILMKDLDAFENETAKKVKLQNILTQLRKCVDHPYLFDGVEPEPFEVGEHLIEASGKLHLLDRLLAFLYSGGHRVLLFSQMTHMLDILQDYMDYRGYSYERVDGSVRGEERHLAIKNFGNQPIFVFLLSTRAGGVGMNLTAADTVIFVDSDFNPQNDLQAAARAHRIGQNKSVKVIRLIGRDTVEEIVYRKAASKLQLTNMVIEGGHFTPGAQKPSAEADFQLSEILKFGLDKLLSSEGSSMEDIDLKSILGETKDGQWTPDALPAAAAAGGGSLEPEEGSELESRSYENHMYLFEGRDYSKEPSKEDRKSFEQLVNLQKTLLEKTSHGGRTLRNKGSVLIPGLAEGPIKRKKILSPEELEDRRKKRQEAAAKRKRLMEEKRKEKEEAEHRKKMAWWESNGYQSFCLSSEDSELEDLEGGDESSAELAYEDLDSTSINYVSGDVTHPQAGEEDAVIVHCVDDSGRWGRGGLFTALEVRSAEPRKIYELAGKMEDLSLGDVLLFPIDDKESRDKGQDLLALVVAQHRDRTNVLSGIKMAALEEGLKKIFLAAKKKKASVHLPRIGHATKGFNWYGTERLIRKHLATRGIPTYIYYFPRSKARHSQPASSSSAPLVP
UniProt Q9CRA7: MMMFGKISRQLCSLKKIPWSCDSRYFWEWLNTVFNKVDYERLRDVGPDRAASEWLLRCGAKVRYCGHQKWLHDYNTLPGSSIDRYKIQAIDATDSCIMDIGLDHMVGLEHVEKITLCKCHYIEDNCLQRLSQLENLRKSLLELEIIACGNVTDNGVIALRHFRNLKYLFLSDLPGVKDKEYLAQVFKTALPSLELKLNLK
UniProt Q9CZR8: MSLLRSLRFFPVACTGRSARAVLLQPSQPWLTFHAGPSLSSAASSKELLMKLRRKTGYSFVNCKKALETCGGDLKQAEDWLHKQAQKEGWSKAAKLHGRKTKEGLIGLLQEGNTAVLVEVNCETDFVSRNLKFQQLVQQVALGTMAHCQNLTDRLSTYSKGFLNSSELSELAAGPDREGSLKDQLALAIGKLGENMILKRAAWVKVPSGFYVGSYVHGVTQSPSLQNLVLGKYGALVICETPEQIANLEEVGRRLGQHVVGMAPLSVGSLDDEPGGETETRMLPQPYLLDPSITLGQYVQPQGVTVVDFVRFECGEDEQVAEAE
UniProt Q9CWB7: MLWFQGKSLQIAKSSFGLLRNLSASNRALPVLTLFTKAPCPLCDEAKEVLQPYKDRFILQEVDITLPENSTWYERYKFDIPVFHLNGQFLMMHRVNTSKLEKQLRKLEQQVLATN
UniProt Q9CXK8: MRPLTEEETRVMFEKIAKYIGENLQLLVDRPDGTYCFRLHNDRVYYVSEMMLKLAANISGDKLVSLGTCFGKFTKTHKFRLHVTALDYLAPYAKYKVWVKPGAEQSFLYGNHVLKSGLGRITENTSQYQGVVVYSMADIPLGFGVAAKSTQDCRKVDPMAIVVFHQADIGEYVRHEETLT
UniProt Q9D0I6: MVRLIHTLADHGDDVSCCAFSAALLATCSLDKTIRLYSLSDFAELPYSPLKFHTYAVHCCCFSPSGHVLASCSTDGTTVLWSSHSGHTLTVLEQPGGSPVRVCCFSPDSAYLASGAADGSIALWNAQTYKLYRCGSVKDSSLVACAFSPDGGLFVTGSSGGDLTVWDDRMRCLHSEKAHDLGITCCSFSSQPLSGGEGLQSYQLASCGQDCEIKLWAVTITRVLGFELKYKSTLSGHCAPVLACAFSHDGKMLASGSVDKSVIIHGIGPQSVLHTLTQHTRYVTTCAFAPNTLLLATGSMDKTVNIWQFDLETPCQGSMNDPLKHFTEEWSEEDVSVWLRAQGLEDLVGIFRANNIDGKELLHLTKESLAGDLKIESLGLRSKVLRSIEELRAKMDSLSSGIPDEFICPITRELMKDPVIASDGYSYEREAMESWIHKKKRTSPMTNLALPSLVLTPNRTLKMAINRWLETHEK
UniProt Q9CYI4: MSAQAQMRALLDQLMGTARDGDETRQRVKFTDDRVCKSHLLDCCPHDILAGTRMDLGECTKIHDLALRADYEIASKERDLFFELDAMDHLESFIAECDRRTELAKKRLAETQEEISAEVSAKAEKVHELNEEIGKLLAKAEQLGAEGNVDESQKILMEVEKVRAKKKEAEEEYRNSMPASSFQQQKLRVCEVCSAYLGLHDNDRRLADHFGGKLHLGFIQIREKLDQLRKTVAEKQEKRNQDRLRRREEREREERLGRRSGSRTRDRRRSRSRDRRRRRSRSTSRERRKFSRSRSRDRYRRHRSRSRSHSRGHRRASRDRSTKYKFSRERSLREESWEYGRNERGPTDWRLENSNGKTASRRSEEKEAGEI

This is one part of the list. Most values lie at the level of the controls, where differences are scatter.

Compound in the assay: CN[C@@H]1C[C@H]2O[C@@](C)([C@@H]1OC)n1c3ccccc3c3c4c(c5c6ccccc6n2c5c31)C(=O)NC4 [staurosporine]
As to the kind of experiment: log2 fold change of tryptic peptide abundance, ligand vs vehicle (limited proteolysis) (log2 ratio); higher = more trypsin-susceptible (destabilized). To be noted: ligand concentration: 20 uM; sample: mouse liver crude lysate; replicate design: treated separately.
For the target “UniProt Q9CYH6 (peptide sequence: KHSWPSALAGKK, peptide start residue: 342)”, the log2 fold change was -0.204.

For the target “UniProt Q9D020 (peptide sequence: SHGLLIEQGIPK, peptide start residue: 151)”, the log2 fold change is 0.495. To “UniProt Q9D0P8 (peptide sequence: EMDNYEAPFHCLAK, peptide start residue: 156)” belongs 0.355; to “UniProt Q9CWT6 (peptide sequence: HLLCAAETGSGK, peptide start residue: 167)”, 0.177.

Consider “UniProt Q9CWR1 (peptide sequence: KNEILHLILPLR, peptide start residue: 48)”, for which the log2 fold change is -0.0746. In the case of “UniProt Q9CWH5 (peptide sequence: SIFELWGHGK, peptide start residue: 72)”, the log2 fold change came out at 0.224. Consider “UniProt Q9CWS1 (peptide sequence: IQEILHNLEEIQEK, peptide start residue: 186)”, for which the log2 fold change was determined as 0.101. As for “UniProt Q9D067 (peptide sequence: SHAPVSADVELRPSSK, peptide start residue: 145)”, the log2 fold change came to 0.251. On to “UniProt Q9CZT5 (peptide sequence: YLQGNTVQLR, peptide start residue: 484)”, for which the log2 fold change came to 0.182. To “UniProt Q9CR88 (peptide sequence: HLADHGLLSGVQR, peptide start residue: 113)” belongs -0.353; to “UniProt Q9CWY9 (peptide sequence: QVGSPHWK, peptide start residue: 15)”, 0.136.

“UniProt Q9D0R2 (peptide sequence: FNLTYVSHDGDDK, peptide start residue: 570)”: the log2 fold change is -0.445. Take “UniProt Q9CY73 (peptide sequence: RPWDYSKPK, peptide start residue: 312)”: the log2 fold change came out at 0.864.

Regarding “UniProt Q9CRD2 (peptide sequence: ILQEDPTNTAAR, peptide start residue: 113)”, the log2 fold change is -0.282. As for “UniProt Q9CRT8 (peptide sequence: FFCFQVLEHQVK, peptide start residue: 54)”, the figure is 0.255. To “UniProt Q9CZX7 (peptide sequence: LHQHVVK, peptide start residue: 71)” belongs 0.499. To “UniProt Q9CXF7 (peptide sequence: TLSEFSAVFR, peptide start residue: 183)” belongs -0.385. “UniProt Q9CRA7 (peptide sequence: DKEYLAQVFK, peptide start residue: 178)”: the log2 fold change was -0.862. For “UniProt Q9CY21 (peptide sequence: SRRPEHSGPPELFYDQNEAR, peptide start residue: 5)”, the log2 fold change was -0.349. As for “UniProt Q9CZR8 (peptide sequence: LGENMILK, peptide start residue: 192)”, the figure is 0.126; as for “UniProt Q9CR63 (peptide sequence: MIAPAVLR, peptide start residue: 1)”, 0.281. To “UniProt Q9CWB7 (peptide sequence: KLEQQVLATN, peptide start residue: 106)” belongs -0.37. As for “UniProt Q9CZ13 (peptide sequence: IQEVDAQMLR, peptide start residue: 433)”, the log2 fold change was -0.326. As for “UniProt Q9CWX9 (peptide sequence: REDAGDDDDKEGAIGVR, peptide start residue: 425)”, the figure is -0.386. To “UniProt Q9CXK8 (peptide sequence: VWVKPGAEQSFLYGNHVLK, peptide start residue: 97)” belongs 0.238.

For “UniProt Q9CWP6 (peptide sequence: CHTVESSKPNSLMLK, peptide start residue: 442)”, the log2 fold change was -0.501. As for “UniProt Q9CRB8 (peptide sequence: AGEVPSPEAGR, peptide start residue: 63)”, the figure is -0.498. As for “UniProt Q9CXG3 (peptide sequence: IHVDFSQSVAK, peptide start residue: 311)”, the figure is 0.218; as for “UniProt Q9D0I6 (peptide sequence: EAMESWIHKK, peptide start residue: 430)”, 0.207; as for “UniProt Q9CYI4 (peptide sequence: ILMEVEK, peptide start residue: 155)”, 0.177.

As to “UniProt Q9D0Y8 (peptide sequence: GTLLRSPLPNQ, peptide start residue: 111)”, the log2 fold change was -0.0923.
